Results taken from the supplement of paper PMC6078165.

Legend:
Assay in all cases: relative JC-1 red fluorescence (viability) vs pre-drug, monoculture (fraction); higher = more viable cancer cells
Conditions in all cases: coculture fibroblast: none (monoculture)
BT20 = tested on: BT20
Description: (§1)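 JC-1 labelled TNBC cells grown in monoculture (density kept equal with unlabelled cancer cells) in 384-well plates in FluoroBrite medium, treated with one of 42 anticancer drugs at 0.1, 1, 10 or 100 uM. JC-1 red fluorescence (mitochondrial integrity, surrogate of apoptotic death) was read by plate reader every 8 h for 72 h. Values are normalised to each well's pre-drug value, with background from alamethicin. The stock of one drug was tenfold lower, so its dose labels may be too high. Monoculture values are repeated alongside each fibroblast plate and are averaged here.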

Hs578T = tested on: Hs578T
Description: as §1

HCC1143 = tested on: HCC1143
Description: as §1

MDAMB468 = tested on: MDAMB468
Description: as §1

CO[C@H]1C[C@@H]2CC[C@@H](C)[C@@](O)(O2)C(=O)C(=O)N2CCCC[C@H]2C(=O)O[C@H]([C@H](C)C[C@@H]2CC[C@@H](OCCO)[C@H](OC)C2)CC(=O)[C@H](C)/C=C(\C)[C@@H](O)[C@@H](OC)C(=O)[C@H](C)C[C@H](C)/C=C/C=C/C=C/1C [Everolimus]
relative JC-1 red fluorescence
Conditions | 8 h | 16 h | 24 h | 32 h | 40 h | 48 h | 56 h | 64 h | 72 h
BT20, 0.1 µM | 0.955 | 0.871 | 0.776 | 0.711 | 0.672 | 0.639 | 0.612 | 0.586 | 0.562
BT20, 1 µM | 0.927 | 0.866 | 0.79 | 0.751 | 0.728 | 0.71 | 0.69 | 0.672 | 0.666
BT20, 10 µM | 0.9457 | 0.8776 | 0.823 | 0.773 | 0.735 | 0.707 | 0.677 | 0.649 | 0.634
BT20, 100 µM | 0.928 | 0.885 | 0.753 | 0.572 | 0.425 | 0.324 | 0.2501 | 0.218 | 0.208
HCC1143, 0.1 µM | 0.8732 | 0.772 | 0.6975 | 0.651 | 0.5993 | 0.5605 | 0.529 | 0.522 | 0.515
HCC1143, 1 µM | 0.875 | 0.801 | 0.735 | 0.685 | 0.646 | 0.603 | 0.575 | 0.566 | 0.553
HCC1143, 10 µM | 0.956 | 0.929 | 0.869 | 0.82 | 0.791 | 0.754 | 0.716 | 0.698 | 0.685
HCC1143, 100 µM | 0.827 | 0.819 | 0.753 | 0.67 | 0.606 | 0.534 | 0.498 | 0.427 | 0.388
Hs578T, 0.1 µM | 0.862 | 0.732 | 0.671 | 0.6164 | 0.5788 | 0.5593 | 0.5399 | 0.5422 | 0.5307
Hs578T, 1 µM | 0.866 | 0.747 | 0.688 | 0.615 | 0.569 | 0.545 | 0.519 | 0.52 | 0.515
Hs578T, 10 µM | 0.935 | 0.8331 | 0.863 | 0.804 | 0.769 | 0.767 | 0.748 | 0.76 | 0.758
Hs578T, 100 µM | 0.816 | 0.878 | 0.83 | 0.766 | 0.6686 | 0.585 | 0.524 | 0.454 | 0.396
MDAMB468, 0.1 µM | 0.8829 | 0.7914 | 0.719 | 0.656 | 0.627 | 0.614 | 0.584 | 0.571 | 0.558
MDAMB468, 1 µM | 0.884 | 0.819 | 0.771 | 0.708 | 0.675 | 0.668 | 0.653 | 0.639 | 0.633
MDAMB468, 10 µM | 0.937 | 0.8762 | 0.83962 | 0.7642 | 0.734 | 0.714 | 0.6718 | 0.65241 | 0.6325
MDAMB468, 100 µM | 0.818 | 0.8502 | 0.783 | 0.757 | 0.663 | 0.574 | 0.498 | 0.428 | 0.369

Values are relative to the signal before dosing, not to a vehicle control; the signal also falls without drug.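 The cancer cells are triple-negative breast cancer lines of basal-like or mesenchymal-like type, grown without fibroblasts. A drop in red signal reflects loss of mitochondrial integrity, a stand-in for apoptotic death.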
